Experimental data taken from publication doi:10.1101/061564.
No constants are given. Whether binding was seen depends on the method and setting.

T1: ELF3-7Q (variant in Col) (Arabidopsis thaliana), O82804
T1 chain: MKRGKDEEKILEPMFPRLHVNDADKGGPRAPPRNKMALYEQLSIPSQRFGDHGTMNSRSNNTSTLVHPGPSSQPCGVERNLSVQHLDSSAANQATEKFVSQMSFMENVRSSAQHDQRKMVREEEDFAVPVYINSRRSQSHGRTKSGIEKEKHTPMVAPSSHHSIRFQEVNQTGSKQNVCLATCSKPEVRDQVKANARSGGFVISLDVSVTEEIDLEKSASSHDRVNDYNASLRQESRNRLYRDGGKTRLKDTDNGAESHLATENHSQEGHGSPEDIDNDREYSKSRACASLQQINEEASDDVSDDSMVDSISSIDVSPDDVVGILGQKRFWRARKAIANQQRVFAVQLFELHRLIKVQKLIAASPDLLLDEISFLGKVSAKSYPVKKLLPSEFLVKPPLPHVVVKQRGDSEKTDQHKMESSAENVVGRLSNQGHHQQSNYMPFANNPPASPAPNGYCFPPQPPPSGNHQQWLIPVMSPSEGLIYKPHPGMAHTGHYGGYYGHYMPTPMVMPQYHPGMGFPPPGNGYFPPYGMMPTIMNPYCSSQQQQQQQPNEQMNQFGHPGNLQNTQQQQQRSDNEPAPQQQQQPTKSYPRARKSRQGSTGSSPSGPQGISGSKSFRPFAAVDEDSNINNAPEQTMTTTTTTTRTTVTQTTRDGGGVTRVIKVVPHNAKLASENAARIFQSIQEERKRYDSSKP

T2: ELF3-7Q (variant in Col) (Arabidopsis thaliana) (UniProt O82804)
T2 sequence: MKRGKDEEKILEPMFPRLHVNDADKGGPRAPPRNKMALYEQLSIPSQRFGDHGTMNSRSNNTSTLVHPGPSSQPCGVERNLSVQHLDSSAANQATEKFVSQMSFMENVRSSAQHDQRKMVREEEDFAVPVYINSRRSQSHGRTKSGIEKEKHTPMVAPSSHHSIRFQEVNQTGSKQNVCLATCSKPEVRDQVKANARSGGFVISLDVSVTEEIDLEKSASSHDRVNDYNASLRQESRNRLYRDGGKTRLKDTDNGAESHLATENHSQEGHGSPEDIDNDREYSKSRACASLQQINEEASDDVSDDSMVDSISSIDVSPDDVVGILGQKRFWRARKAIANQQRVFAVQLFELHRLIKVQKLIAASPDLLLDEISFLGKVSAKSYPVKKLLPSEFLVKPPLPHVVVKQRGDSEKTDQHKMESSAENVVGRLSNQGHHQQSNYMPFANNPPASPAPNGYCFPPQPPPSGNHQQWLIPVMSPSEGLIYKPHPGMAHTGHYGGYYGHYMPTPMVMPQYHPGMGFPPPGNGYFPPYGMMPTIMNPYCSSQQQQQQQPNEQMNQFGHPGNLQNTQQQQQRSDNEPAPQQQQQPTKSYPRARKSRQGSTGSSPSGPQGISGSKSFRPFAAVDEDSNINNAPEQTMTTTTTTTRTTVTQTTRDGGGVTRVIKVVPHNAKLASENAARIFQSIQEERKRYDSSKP


Key:
[1] = target: T1, ELF3-7Q (variant in Col) (Arabidopsis …); assay: two-hybrid; details: remark: other sources report otherwise
[2] = target: T2, ELF3-7Q (variant in Col) (Arabidopsis thaliana); assay: two-hybrid

Row | binding [1] | binding [2] | Binder
1 | no binding |  | Phytochrome Interacting Factor 4, Q8W2F3 1-430 (protein) MEHQGWSFEENYSLSTNRRSIRPQDELVELLWRDGQVVLQSQTHREQTQTQKQDHHEEALRSSTFLEDQETVSWIQYPPDEDPFEPDDFSSHFFSTMDPLQRPTSETVKPKSSPEPPQVMVKPKACPDPPPQVMPPPKFRLTNSSSGIRETEMEQYSVTTVGPSHCGSNPSQNDLDVSMSHDRSKNIEEKLNPNASSSSGGSSGCSFGKDIKEMASGRCITTDRKRKRINHTDESVSLSDAIGNKSNQRSGSNRRSRAAEVHNLSERRRRDRINERMKALQELIPHCSKTDKASILDEAIDYLKSLQLQLQVMWMGSGMAAAAASAPMMFPGVQPQQFIRQIQSPVQLPRFPVMDQSAIQNNPGLVCQNPVQNQIISDRFARYIGGFPHMQAATQMQPMEMLRFSSPAGQQSQQPSSVPTKTTDGSRLDH
2 |  | no binding | LSH9 (LIGHT-… SHORT HYPOCOTYLS 9), Col variant (protein, UniProt Q9SN52 1-191) MSSDRHTPTKDPPDHPSSSSNHHKQPLPPQPQQPLSRYESQKRRDWNTFVQYLKSQNPPLMMSQFDYTHVLSFLRYLDQFGKTKVHHQACVFFGQPDPPGPCTCPLKQAWGSLDALIGRLRAAYEEHGGGSPDTNPFANGSIRVHLREVRESQAKARGIPYRKKKRRKTKNEVVVVKKDVANSSTPNQSFT
